Assay results: article PMC12781089

Protein sequences, listed by entry. Tags and fused reporters are not part of them. Lines headed by an entry give the natural chain unless they say otherwise; changes in a name come on top.
UniProt P11881: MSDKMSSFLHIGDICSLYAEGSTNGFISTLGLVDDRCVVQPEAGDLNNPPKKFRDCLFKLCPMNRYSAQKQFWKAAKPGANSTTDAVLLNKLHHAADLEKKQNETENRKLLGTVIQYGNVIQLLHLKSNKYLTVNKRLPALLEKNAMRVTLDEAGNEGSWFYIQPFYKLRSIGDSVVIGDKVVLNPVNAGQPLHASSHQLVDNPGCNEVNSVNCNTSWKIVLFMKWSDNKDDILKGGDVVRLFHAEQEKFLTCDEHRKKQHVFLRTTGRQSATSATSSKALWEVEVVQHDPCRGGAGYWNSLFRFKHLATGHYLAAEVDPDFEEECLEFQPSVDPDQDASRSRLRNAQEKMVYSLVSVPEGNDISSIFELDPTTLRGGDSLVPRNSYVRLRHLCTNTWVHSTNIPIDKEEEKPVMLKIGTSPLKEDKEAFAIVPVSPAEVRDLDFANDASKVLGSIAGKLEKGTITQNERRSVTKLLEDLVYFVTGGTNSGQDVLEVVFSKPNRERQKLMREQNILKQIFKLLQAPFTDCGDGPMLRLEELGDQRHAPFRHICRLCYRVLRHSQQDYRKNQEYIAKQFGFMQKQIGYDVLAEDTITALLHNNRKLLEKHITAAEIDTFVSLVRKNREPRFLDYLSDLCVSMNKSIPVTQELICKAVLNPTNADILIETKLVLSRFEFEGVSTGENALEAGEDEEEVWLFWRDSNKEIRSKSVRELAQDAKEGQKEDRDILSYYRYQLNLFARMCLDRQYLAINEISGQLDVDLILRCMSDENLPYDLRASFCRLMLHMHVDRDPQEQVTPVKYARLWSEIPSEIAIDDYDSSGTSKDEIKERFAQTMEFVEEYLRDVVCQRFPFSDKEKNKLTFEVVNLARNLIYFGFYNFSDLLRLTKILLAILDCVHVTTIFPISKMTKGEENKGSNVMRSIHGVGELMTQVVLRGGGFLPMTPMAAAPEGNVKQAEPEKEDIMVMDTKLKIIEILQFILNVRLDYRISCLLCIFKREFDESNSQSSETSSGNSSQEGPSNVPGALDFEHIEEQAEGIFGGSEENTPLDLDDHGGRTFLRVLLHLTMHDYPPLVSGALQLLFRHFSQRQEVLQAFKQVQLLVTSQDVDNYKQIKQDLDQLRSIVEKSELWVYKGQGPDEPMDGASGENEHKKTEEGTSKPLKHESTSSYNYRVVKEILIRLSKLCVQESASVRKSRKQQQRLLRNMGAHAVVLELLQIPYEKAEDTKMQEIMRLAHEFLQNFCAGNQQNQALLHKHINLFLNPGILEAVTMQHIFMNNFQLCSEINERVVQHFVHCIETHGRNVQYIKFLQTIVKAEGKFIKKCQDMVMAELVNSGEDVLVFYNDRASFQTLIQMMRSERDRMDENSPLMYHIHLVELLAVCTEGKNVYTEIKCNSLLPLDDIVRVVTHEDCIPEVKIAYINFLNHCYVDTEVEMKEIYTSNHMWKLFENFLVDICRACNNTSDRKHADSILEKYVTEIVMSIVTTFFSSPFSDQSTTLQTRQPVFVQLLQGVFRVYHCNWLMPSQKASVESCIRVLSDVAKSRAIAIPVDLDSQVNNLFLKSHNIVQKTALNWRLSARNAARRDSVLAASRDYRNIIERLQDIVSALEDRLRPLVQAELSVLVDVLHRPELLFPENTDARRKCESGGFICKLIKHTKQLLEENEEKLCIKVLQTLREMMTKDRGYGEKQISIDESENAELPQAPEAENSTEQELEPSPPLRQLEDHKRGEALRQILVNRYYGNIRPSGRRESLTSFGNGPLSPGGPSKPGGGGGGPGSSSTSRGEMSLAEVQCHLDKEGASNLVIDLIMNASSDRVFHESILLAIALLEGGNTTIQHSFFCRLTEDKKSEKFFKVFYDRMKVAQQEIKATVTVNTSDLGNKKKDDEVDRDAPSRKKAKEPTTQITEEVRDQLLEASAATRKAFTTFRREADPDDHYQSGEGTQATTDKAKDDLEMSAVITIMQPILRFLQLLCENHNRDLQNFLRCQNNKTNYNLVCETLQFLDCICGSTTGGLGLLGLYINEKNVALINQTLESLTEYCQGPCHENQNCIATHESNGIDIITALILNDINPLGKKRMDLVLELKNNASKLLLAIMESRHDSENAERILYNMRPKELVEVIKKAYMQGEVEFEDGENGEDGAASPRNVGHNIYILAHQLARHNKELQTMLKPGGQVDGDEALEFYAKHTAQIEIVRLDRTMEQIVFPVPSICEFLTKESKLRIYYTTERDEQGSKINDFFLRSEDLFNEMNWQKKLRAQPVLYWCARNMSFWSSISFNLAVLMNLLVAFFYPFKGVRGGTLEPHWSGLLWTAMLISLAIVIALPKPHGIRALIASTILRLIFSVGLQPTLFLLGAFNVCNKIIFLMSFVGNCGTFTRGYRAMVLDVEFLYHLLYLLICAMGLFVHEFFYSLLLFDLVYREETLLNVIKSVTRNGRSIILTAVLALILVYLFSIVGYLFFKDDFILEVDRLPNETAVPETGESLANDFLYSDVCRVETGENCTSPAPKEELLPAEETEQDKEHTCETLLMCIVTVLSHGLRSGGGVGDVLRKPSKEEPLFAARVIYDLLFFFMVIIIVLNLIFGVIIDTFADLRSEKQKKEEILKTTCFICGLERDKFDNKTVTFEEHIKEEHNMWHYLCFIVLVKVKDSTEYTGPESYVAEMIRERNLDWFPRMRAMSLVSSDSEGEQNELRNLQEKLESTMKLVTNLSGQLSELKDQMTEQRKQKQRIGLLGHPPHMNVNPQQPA
UniProt Q60932: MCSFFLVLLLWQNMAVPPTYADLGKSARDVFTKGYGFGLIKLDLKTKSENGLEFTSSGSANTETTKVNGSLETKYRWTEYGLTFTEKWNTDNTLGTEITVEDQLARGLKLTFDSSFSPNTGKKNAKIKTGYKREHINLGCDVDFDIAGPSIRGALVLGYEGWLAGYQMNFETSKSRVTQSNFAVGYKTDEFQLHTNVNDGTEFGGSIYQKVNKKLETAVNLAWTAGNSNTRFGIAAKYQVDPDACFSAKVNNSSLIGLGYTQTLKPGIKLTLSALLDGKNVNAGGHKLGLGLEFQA

Experiments:
[1] = target: inositol-1,4,5-triphosphate receptor (IP3R), mouse brain (mouse (endogenous in brain)) (UniProt P11881); assay: proximity ligation; Duolink in situ PLA with IP3R and VDAC1 antibodies on 10 um sections of mouse substantia nigra, co-stained for TH; WT and Parkin KO mice
[2] = target: T1, Parkin (mouse brain) (mouse (endogenous in brain)) (UniProt Q9WVS6); assay: co-IP; Parkin antibody on Dynabeads Protein G, total lysates of ventral midbrain of mouse brain
T1 sequence: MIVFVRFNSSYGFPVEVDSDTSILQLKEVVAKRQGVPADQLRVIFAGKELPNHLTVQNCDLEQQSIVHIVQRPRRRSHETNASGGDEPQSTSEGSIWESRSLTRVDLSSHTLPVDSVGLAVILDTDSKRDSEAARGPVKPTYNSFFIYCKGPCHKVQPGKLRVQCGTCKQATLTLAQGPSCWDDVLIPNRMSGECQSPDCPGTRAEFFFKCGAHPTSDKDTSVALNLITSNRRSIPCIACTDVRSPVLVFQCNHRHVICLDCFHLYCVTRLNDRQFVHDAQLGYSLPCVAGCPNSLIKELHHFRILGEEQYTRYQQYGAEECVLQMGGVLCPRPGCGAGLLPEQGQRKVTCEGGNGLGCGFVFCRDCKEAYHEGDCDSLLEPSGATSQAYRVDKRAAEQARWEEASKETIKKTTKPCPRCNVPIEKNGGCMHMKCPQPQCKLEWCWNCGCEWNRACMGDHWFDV

[3] = target: T1, Parkin (mouse brain) (mouse (endogenous in brain)); assay: co-IP; Parkin antibody on Dynabeads Protein G, MAM fractions prepared from the ventral midbrain of mouse brain
[4] = target: inositol-1,4,5-triphosphate receptor (IP3R), mouse brain (mouse (endogenous in brain)) (UniProt P11881); assay: native gel or EMSA; BN-PAGE with immunoblot of crude mitochondria fractions from ventral midbrain of mouse brain
[5] = target: T1, Parkin (mouse brain) (mouse (endogenous in brain)); assay: as above
[6] = target: inositol-1,4,5-triphosphate receptor (IP3R), mouse brain (mouse (endogenous in brain)) (UniProt P11881); assay: co-IP; IP3R antibody on Dynabeads Protein G, brain homogenates (ventral midbrain lysates) of WT and Parkin KO mice

Measured: binding

VDAC1, mouse brain (from UniProt Q60932)
binds: all assays above

Results are given in words; binding and its absence hold for the method and conditions named. Binding can be weak; no strength is given. For part of these data: Binding seen in cells or lysates may run through a third protein.
